Assay results: paper PMC7709239
No constants are given. Whether binding was seen depends on the method and setting. Binding seen in cells or lysates may run through a third protein. Some results given as binding are weak or reduced against the parent protein; the word gives no strength. For part of these data: Where a sequence is shown, tags or fusion partners need not be part of it.

Chains of the proteins cited; added tags and fusions are not shown.
UniProt P08758: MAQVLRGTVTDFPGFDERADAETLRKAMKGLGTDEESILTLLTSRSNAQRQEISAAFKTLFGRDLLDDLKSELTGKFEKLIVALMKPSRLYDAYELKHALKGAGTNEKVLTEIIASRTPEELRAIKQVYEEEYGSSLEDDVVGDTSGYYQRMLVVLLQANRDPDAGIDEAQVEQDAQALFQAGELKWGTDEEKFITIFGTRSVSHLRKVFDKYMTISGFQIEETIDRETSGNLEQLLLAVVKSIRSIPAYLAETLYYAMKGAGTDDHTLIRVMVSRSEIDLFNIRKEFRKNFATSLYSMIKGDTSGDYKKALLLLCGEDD
UniProt Q702N8: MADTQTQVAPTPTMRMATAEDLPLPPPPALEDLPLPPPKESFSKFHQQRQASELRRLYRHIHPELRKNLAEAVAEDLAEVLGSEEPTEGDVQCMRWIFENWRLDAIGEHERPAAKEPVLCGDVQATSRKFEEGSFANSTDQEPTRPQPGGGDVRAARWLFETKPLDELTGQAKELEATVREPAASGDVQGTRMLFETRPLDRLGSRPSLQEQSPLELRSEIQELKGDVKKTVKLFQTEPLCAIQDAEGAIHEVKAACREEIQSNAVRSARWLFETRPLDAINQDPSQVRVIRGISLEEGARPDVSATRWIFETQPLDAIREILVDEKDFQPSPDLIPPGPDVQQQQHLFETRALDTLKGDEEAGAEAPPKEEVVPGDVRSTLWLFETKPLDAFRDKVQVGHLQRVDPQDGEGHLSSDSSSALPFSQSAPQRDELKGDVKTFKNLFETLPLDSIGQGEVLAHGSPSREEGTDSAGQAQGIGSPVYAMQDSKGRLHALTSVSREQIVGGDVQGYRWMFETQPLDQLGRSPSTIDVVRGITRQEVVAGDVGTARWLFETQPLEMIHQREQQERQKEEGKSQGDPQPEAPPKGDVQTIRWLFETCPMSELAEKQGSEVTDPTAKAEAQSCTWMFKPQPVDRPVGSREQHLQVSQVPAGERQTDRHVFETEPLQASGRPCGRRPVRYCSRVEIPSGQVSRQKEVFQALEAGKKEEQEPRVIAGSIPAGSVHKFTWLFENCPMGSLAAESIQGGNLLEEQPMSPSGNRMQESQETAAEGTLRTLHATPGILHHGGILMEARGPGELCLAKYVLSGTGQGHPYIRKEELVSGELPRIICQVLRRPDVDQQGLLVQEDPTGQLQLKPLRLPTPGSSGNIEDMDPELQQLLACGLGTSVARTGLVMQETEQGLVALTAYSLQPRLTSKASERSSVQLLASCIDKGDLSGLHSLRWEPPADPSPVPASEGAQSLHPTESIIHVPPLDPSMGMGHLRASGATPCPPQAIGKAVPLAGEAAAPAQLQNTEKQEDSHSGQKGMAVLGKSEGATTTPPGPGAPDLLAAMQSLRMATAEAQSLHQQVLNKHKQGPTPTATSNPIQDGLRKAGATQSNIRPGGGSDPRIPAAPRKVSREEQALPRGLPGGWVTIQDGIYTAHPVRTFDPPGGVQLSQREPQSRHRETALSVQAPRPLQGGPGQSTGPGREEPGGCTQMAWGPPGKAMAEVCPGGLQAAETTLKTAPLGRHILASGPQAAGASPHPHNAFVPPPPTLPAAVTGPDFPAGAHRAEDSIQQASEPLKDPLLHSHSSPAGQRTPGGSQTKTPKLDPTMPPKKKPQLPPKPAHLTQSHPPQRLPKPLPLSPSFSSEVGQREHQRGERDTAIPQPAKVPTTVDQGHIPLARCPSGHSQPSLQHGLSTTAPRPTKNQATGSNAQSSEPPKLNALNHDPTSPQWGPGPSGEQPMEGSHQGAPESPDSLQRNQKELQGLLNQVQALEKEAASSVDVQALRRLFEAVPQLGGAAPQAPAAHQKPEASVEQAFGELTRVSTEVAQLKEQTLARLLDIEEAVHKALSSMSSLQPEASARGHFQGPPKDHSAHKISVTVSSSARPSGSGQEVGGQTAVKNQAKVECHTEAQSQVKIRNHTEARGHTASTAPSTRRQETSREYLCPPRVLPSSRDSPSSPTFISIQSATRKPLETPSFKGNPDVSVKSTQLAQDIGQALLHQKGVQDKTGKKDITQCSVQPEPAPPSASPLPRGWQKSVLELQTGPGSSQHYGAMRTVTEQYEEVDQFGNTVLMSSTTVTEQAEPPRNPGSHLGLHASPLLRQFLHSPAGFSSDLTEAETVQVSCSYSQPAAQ

Columns and labels:
[1] = target: T1, GST-mouse Popdc1 (aa 114 to 357) fusion protein (mouse) (UniProt Q9ES83); assay: pull-down; glutathione beads loaded with recombinant GST-POPDC bait, incubated with human myotube extract in RIPA buffer; western blot of the pulled-down proteins; control: unloaded beads; only the target purified
T1 sequence: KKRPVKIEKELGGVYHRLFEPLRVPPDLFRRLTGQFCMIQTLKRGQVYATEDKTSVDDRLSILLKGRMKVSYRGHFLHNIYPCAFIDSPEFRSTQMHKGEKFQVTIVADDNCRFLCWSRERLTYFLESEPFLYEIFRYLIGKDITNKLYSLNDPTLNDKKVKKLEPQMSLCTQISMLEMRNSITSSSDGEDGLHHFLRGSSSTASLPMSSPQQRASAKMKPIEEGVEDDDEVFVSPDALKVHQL

[2] = target: T2, Popeye domain-containing protein 1 (human, endogenous) (human (endogenous in human myotubes)) (UniProt Q8NE79); assay: co-IP; Pan Mouse IgG Dynabeads loaded with mAb 1C12 against POPDC1, incubated with human myotube extract in RIPA buffer for 1 h; western blot with XIRP1 mAb; control: unloaded beads
T2 sequence: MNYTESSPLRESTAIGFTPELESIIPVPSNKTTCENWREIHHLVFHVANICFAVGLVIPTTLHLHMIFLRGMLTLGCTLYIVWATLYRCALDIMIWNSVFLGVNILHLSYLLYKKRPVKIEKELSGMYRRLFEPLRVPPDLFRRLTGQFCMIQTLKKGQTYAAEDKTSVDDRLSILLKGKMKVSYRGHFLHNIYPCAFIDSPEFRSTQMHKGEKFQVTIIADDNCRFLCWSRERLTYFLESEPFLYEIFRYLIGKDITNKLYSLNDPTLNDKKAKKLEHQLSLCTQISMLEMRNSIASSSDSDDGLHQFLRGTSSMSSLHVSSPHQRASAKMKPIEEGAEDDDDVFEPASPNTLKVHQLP

binding [1]	binding [2]	Substance
binds		Annexin A5 (from UniProt P08758 1-320)
binds	binds	Xin actin-binding repeat-containing protein 1 (from UniProt Q702N8 1-1843)
